# Measured values: PubChem BioAssay AID1224903 (Bradner/Qi Labs at DFCI, 2016)
# Protein sequences, listed by entry. Tags and fused reporters are not part of them.
# UniProt O95931, whole entry: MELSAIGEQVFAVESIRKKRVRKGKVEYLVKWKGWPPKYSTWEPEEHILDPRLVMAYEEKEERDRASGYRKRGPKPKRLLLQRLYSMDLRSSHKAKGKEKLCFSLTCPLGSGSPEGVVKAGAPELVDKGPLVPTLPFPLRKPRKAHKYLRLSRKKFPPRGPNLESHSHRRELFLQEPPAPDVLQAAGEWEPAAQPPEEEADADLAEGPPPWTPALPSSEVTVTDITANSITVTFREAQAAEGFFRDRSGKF
# Some of the results follow.
# Molecular target: Chromobox protein homolog 7 (Homo sapiens) (UniProt O95931)
# Assay: CBX7 chromodomain binding inhibitors, primary screen, biochemical, AlphaScreen (AID 1224903)
# Settings: AlphaScreen His6-CBX7 / biotin-H3K27me3 peptide binding; measured here: z-score of CBX7 signal; stronger effect = lower value
row,SMILES,z-score
1,NC(=O)C1(Nc2ccccc2)CCN(Cc2ccccc2)CC1,-1.19
2,COc1ccc(NC2CCN(CCCC(=O)c3ccc(F)cc3)CC2)cc1,-1.03
3,O=C(CCCN1CCC(Nc2ccccc2)CC1)c1ccc(F)cc1,-3.22
4,CN1CCN(CCOC(=O)C(O)(c2ccccc2)c2ccccc2)CC1,-0.334
